In doi:10.1101/2022.08.09.502851 one finds binding data, which are given here for one substance.

Results are given in words; binding and its absence hold for the method and conditions named. Some binding calls cover weakened binding; strength is not graded here.

The assay concerns the target T1, α-dystroglycan with the knock-in mutation T190M, from Dag1 T190M mouse skeletal muscle (mouse) (UniProt Q62165).
T1 sequence (chain, matriglycan shorter than wild type (α-DG laminin-binding band at ~100-150 kDa)): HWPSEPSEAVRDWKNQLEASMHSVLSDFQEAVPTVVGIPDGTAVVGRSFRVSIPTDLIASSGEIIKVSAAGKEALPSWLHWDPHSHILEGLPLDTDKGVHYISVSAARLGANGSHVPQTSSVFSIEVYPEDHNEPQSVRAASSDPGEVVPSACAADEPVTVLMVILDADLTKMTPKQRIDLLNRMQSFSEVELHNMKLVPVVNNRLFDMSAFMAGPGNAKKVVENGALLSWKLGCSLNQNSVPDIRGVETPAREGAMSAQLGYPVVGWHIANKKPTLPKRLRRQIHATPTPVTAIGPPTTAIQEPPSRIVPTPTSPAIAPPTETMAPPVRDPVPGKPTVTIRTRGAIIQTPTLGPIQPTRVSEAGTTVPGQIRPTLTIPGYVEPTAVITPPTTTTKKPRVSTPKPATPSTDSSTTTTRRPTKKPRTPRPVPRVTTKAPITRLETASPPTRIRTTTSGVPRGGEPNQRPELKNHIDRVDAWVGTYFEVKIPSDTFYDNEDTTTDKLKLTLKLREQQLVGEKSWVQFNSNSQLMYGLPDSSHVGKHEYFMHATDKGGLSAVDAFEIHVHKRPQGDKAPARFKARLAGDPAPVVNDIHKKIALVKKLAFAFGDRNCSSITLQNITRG
As to the kind of experiment: far-Western, overlay or dot blot.

Turning to “laminin-111 (mouse Engelbreth-Holm-Swarm (EHS) laminin) (from UniProt P19137 25-3083; P02469 22-1786; P02468 34-1607) (complex)”, the binding entry is “binds”.
